Source: the supplement of paper PMC10849652
The other results are listed elsewhere or left out.

Amino acid sequences for entries named in this document (tags omitted). A change or cut given only in a name is not applied to a line headed by its entry.
UniProt Q8N4V1: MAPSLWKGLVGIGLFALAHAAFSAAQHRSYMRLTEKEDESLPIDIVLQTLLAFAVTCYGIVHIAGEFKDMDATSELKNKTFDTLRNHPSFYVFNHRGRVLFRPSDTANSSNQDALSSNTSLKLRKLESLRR
UniProt Q6NTE8: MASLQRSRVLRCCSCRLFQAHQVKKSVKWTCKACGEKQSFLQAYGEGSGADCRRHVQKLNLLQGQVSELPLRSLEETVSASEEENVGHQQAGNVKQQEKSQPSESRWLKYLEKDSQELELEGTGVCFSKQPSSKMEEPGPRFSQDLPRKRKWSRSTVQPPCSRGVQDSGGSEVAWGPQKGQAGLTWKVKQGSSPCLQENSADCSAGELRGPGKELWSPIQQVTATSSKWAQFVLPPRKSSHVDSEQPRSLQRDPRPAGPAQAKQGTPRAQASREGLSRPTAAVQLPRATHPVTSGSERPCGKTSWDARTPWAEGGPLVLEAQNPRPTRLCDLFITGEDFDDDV
UniProt Q9NV56, whole entry, looked up: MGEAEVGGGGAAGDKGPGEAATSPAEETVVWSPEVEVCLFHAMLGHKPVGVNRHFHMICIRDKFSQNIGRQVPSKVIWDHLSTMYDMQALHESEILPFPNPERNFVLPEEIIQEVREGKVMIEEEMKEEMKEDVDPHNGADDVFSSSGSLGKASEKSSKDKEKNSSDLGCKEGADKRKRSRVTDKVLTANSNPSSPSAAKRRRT
UniProt Q9H8S9: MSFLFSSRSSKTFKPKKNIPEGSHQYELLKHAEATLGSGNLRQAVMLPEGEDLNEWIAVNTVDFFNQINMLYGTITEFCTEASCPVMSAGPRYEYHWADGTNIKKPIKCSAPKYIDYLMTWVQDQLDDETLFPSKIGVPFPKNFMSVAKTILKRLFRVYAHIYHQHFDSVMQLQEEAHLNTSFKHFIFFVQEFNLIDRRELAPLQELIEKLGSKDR
UniProt Q99547: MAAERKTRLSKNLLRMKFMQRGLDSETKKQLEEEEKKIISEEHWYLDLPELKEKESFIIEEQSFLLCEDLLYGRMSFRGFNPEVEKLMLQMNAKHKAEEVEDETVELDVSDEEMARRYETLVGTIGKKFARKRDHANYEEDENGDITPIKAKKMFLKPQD
UniProt Q96BX8: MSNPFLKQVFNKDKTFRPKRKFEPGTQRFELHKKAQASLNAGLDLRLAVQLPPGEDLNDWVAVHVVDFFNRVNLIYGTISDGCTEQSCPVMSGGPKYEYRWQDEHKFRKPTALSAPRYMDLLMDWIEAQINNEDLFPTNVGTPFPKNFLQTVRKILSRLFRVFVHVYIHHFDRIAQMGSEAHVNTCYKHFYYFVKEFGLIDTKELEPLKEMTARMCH
UniProt O95563: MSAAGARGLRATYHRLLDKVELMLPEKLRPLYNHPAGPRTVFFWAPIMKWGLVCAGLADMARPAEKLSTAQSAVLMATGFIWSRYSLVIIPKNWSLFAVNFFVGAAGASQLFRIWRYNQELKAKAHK
UniProt Q8NBR6: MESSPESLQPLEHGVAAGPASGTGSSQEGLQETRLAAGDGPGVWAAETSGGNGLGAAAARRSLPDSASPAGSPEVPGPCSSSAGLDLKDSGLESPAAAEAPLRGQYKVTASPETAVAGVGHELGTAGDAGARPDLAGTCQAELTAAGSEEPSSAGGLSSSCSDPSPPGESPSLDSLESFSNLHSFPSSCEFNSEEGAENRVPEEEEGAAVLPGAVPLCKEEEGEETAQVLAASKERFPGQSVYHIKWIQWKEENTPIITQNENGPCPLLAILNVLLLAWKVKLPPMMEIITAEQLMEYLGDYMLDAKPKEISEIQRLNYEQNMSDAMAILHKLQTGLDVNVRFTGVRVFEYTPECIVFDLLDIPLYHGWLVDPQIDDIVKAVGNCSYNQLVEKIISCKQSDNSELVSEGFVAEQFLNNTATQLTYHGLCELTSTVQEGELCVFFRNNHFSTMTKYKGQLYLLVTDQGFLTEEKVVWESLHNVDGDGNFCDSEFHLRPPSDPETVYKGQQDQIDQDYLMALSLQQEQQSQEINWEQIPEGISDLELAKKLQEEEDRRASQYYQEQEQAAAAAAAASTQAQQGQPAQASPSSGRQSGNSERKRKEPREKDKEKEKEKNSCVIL
UniProt P51948: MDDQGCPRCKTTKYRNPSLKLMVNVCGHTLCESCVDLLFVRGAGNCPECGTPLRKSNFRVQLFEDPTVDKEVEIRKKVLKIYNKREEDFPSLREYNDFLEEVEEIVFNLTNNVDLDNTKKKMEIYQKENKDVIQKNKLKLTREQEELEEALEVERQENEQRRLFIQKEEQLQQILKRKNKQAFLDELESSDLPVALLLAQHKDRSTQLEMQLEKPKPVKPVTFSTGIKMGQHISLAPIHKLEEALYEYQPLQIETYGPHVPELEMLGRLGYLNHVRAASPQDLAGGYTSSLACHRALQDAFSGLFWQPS
UniProt O96033: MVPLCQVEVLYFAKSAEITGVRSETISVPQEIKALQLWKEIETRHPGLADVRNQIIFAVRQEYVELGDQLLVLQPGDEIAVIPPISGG
UniProt Q9HBH9: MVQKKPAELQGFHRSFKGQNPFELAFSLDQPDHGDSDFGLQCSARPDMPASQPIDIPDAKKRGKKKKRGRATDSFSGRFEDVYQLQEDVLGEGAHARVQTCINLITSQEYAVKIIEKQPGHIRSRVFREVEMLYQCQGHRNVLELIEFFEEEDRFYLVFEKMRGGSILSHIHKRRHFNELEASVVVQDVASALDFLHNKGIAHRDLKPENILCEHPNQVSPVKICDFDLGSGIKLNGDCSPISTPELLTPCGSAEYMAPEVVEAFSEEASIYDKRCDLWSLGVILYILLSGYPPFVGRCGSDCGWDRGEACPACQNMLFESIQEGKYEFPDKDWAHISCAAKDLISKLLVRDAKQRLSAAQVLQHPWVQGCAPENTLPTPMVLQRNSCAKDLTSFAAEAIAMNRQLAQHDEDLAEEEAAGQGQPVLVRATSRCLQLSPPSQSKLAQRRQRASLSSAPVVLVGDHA
UniProt Q9UL63, whole entry, looked up: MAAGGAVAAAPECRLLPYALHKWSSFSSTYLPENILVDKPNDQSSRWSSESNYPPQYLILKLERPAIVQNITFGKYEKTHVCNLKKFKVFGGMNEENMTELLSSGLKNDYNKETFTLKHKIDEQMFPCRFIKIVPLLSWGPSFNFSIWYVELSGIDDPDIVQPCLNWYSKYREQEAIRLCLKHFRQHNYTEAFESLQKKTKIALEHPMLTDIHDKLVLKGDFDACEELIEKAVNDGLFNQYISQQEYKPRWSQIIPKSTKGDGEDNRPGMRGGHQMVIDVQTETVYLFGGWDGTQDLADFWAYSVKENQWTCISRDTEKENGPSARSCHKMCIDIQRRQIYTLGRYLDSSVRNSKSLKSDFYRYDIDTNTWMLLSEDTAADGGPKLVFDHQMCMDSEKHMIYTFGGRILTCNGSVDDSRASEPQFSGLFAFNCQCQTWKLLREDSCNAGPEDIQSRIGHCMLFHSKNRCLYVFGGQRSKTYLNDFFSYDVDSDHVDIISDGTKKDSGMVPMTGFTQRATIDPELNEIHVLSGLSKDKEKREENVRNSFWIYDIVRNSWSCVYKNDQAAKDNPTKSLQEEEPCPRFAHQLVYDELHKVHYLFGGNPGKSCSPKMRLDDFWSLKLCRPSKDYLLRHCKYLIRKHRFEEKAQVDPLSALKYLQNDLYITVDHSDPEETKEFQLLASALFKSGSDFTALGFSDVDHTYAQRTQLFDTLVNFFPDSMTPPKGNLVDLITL
UniProt Q8NDA8: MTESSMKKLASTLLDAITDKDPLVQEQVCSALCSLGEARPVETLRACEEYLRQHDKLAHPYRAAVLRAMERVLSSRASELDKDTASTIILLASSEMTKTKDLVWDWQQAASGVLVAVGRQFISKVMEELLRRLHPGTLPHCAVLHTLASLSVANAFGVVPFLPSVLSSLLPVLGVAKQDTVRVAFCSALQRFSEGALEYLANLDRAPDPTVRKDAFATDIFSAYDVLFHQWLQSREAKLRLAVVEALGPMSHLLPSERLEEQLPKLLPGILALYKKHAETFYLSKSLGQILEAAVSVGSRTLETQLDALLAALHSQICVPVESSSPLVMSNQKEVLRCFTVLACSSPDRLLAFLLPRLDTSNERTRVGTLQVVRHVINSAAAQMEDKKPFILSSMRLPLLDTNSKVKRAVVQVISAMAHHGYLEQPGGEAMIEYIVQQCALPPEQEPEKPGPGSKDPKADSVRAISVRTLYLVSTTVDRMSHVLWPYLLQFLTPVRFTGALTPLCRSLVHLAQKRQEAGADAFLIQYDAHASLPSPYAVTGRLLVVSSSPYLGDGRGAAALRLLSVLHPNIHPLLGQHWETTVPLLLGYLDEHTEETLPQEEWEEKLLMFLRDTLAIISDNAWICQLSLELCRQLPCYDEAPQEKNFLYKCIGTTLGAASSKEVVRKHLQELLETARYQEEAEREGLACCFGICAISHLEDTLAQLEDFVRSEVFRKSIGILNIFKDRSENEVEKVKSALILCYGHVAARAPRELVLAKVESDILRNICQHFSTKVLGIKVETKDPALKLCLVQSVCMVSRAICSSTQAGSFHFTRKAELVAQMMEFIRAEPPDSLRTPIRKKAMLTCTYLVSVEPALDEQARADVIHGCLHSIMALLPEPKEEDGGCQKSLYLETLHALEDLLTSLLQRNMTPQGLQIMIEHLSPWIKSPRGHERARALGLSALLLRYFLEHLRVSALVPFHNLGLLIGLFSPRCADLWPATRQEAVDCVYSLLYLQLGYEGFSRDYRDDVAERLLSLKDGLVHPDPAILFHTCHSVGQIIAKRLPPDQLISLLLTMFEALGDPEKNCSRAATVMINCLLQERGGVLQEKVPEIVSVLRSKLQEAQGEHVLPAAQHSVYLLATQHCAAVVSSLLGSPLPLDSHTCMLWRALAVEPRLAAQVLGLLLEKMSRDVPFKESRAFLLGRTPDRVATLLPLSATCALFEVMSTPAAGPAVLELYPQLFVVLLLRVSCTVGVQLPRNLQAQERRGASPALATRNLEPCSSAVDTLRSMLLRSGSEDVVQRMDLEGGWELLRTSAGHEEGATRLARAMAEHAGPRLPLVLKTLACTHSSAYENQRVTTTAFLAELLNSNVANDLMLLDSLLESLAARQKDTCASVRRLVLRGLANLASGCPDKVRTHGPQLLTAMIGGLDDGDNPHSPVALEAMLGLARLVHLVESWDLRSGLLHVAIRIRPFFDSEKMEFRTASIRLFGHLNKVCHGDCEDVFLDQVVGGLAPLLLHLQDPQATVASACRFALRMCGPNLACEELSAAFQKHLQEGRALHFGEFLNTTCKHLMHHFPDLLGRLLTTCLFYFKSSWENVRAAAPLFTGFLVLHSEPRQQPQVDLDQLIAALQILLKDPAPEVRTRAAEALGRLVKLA
UniProt Q7L4E1: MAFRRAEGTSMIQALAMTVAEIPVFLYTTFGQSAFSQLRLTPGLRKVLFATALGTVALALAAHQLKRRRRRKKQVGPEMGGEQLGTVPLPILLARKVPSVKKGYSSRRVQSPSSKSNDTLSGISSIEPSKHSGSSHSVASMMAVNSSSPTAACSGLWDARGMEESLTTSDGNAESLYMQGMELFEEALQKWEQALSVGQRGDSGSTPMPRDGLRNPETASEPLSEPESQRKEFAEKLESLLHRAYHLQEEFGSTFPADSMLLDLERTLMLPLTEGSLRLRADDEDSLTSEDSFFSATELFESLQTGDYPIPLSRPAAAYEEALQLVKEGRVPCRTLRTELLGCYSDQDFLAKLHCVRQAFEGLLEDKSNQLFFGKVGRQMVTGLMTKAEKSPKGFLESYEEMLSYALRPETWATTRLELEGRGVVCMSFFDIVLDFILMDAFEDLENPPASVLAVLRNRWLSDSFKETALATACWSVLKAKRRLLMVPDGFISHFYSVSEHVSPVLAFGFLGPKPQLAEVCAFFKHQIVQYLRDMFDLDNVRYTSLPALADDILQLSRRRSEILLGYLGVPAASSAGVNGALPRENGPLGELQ
UniProt Q9NPJ1: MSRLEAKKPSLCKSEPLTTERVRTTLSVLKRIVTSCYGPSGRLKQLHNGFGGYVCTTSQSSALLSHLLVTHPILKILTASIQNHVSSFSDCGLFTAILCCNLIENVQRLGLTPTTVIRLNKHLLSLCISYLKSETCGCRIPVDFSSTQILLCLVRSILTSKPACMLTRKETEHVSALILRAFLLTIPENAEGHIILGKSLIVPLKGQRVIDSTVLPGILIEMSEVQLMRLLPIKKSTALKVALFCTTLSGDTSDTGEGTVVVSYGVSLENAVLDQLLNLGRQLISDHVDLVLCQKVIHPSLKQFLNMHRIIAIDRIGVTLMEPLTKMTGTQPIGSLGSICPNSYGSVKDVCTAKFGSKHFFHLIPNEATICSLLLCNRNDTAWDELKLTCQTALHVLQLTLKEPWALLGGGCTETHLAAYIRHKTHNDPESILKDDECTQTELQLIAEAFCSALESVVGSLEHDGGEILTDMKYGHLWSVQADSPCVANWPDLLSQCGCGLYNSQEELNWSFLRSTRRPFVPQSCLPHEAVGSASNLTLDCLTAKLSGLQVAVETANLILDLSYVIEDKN

Key:
Assay in all cases: log2 fold change, soluble protein after heating vs DMSO (PISA); higher = thermal stabilisation; K562 lysate, 10 uM; active = over 0.2 and 3.5 SD of the protein, either way, in both replicates (recomputed)
vorinostat = compound: O=C(CCCCCCC(=O)Nc1ccccc1)NO [vorinostat]
Procedure, shortened: (§1)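 Thermal stability, expressed as log-two fold change relative to solvent controls, is given from duplicates. Crude K562 extract in PBS pH 7.4 with 1 mM MgCl2, at 1 mg/mL protein, was treated with 10 μM compound for 30 min and heated in aliquots for 3 min across 48°C-58°C. After pooling, adjustment to 0.5% NP-40 at 4°C and centrifugation at 21,000xg for 90 min, supernatant protein was measured by TMTpro 16plex LC-MS/MS with channel sums equalised.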

silmitasertib = compound: O=C(O)c1ccc2c(c1)nc(Nc1cccc(Cl)c1)c1ccncc12 [silmitasertib]
Procedure, shortened: as §1

[1] = compound: O=C1NC(=O)C(c2cnc3ccccn23)=C1c1cn2c3c(cc(F)cc13)CN(C(=O)N1CCCCC1)CC2
Procedure, shortened: as §1

[2] = compound: NCC(=O)Nc1ccc(-n2nc(C(F)(F)F)cc2-c2ccc3c(ccc4ccccc43)c2)cc1
Procedure, shortened: as §1

entospletinib = compound: c1cn2cc(-c3ccc4cn[nH]c4c3)nc(Nc3ccc(N4CCOCC4)cc3)c2n1 [entospletinib]
Procedure, shortened: as §1

Target	log2 fold change (vorinostat)	log2 fold change (silmitasertib)	log2 fold change [1]	log2 fold change [2]	log2 fold change (entospletinib)
MIIP (UniProt Q5JXC2)	inactive: 0.258	inactive: -0.212	inactive: -0.011	–	–
MICAL1 isoform 4 (UniProt Q8TDZ2)	inactive: 0.04	inactive: -0.051	inactive: 0.064	inactive: 0.011	inactive: 0.05
MRC2 (UniProt Q9UBG0)	inactive: 0.346	inactive: -0.051	inactive: -0.171	–	inactive: -0.055
MMGT1 (UniProt Q8N4V1)	inactive: 0.126	inactive: -0.003	inactive: -0.01	–	inactive: -0.038
MICU2 (UniProt Q8IYU8)	inactive: -0.179	inactive: 0.031	inactive: -0.009	inactive: 0.012	inactive: -0.089
MRNIP (UniProt Q6NTE8)	inactive: -0.166	inactive: -0.042	inactive: 0.069	–	–
MRGBP (UniProt Q9NV56)	inactive: -0.021	inactive: 0.014	inactive: -0.014	inactive: -0.01	inactive: 0.08
MOB1A (UniProt Q9H8S9)	–	–	–	inactive: 0.116	inactive: 0.008
MPHOSPH6 (UniProt Q99547)	inactive: 0.09	inactive: -0.027	inactive: 0.013	inactive: -0.009	inactive: 0.002
MOB3A (UniProt Q96BX8)	inactive: 0.07	inactive: -0.016	inactive: -0.013	inactive: 0.009	inactive: -0.046
MPP1 (UniProt Q00013)	active: -0.297	inactive: 0.02	inactive: 0.024	inactive: 0.012	inactive: 0.007
MPC2 (UniProt O95563)	inactive: 0.02	inactive: 0.007	inactive: 0.006	inactive: 0.055	inactive: 0.004
MKKS (UniProt Q9HB66)	inactive: 0.164	inactive: -0.008	–	inactive: -0.075	inactive: -0.008
MINDY2 (UniProt Q8NBR6)	–	–	inactive: 0.015	–	inactive: -0.018
MNAT1 (UniProt P51948)	inactive: 0.088	inactive: -0.02	inactive: 0.024	inactive: 0.029	inactive: 0.018
MRPL20 (UniProt Q9BYC9)	inactive: 0.065	inactive: -0.066	inactive: 0.046	inactive: 0.012	inactive: 0.019
MIDEAS, A0A1C7CYX1	inactive: -0.211	inactive: 0.054	inactive: -0.029	–	–
MOCS2 (UniProt O96033)	–	–	inactive: 0.033	–	–
MIER2 (UniProt Q8N344)	inactive: -0.109	inactive: 0.041	–	inactive: -0.082	inactive: 0.171
MLKL (UniProt Q8NB16)	inactive: -0.15	inactive: -0.041	inactive: 0.067	–	inactive: -0.103
MKNK2 (UniProt Q9HBH9)	inactive: -0.094	inactive: 0.201	–	inactive: -0.176	inactive: -0.291
MME (UniProt P08473)	inactive: 0.096	inactive: -0.033	inactive: -0.038	–	–
MKLN1 (UniProt Q9UL63)	inactive: -0.097	inactive: 0.001	inactive: 0.014	inactive: 0.021	inactive: 0.005
MIPOL1 (UniProt Q8TD10)	inactive: -0.363	inactive: 0.177	inactive: 0.358	–	inactive: -0.081
MITD1 (UniProt Q8WV92)	active: 0.255	inactive: -0.051	inactive: -0.079	inactive: 0.01	inactive: -0.024
MROH1 (UniProt Q8NDA8)	–	–	inactive: -0.034	–	inactive: -0.153
MIGA2 (UniProt Q7L4E1)	inactive: 0.146	inactive: 0.033	–	–	inactive: -0.078
MKKS (UniProt Q9NPJ1)	–	–	–	inactive: -0.036	inactive: 0.124
MR1 (UniProt Q95460)	inactive: 0.092	inactive: -0.048	–	inactive: -0.084	inactive: 0.01

Taken from the results shown (six entries):
Target	log2 fold change (vorinostat)	log2 fold change (silmitasertib)	log2 fold change [1]	log2 fold change [2]	log2 fold change (entospletinib)
MPC2 (UniProt O95563)	inactive: 0.02	inactive: 0.007	inactive: 0.006	inactive: 0.055	inactive: 0.004
MKKS (UniProt Q9HB66)	inactive: 0.164	inactive: -0.008	–	inactive: -0.075	inactive: -0.008
MINDY2 (UniProt Q8NBR6)	–	–	inactive: 0.015	–	inactive: -0.018
MNAT1 (UniProt P51948)	inactive: 0.088	inactive: -0.02	inactive: 0.024	inactive: 0.029	inactive: 0.018
MRPL20 (UniProt Q9BYC9)	inactive: 0.065	inactive: -0.066	inactive: 0.046	inactive: 0.012	inactive: 0.019
MIDEAS, A0A1C7CYX1	inactive: -0.211	inactive: 0.054	inactive: -0.029	–	–
